# Experimental data: PubChem BioAssay AID493005 (National Center for Advancing Translational Sciences (NCATS), 2010)
# Amino acid sequences for entries named in this document (tags omitted).
# UniProt Q99816, whole entry: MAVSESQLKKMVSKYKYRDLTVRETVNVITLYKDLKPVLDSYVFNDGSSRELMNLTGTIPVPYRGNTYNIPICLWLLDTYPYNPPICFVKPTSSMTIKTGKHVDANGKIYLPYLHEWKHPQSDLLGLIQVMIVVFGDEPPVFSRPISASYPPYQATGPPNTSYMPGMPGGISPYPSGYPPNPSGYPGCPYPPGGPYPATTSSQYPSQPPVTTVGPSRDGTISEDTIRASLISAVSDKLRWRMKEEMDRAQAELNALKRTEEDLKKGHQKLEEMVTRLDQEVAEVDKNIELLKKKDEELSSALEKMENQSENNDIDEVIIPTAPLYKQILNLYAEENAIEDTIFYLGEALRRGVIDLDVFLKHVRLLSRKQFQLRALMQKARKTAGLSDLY
# Hit rate of the full screen: of about 340,000 compounds, fewer than 10 were called active. Only results without a clear call are listed here; the source files them as inconclusive. Calls follow the shape of the dose curve; as a rule, active = well fitted inhibition curve with a large enough effect in the main read-out, with a control signal flat (not every such curve was filed as active); inconclusive = small, poorly fitted or top-dose-only effect, or effect the other way, or a change in a side signal; inactive = no such curve, though single readings can be large or run the other way.
# Target: Tumor susceptibility gene 101 protein (Homo sapiens) (UniProt Q99816)
# Assay: qHTS Assay for Iinhibitors of HIV-1 Budding by Blocking the Interaction of PTAP/TSG101
# Conditions: Fluorescence polarization, FITC-PTAP peptide / Tsg101 binding
# From the text: NIH Molecular Libraries Probe Production Network [MLPCN] NIH Chemical Genomics Center [NCGC] MLPCN Grant: 1 R03 MH087464-01A1 PI Name: Dr. Eric Freed, NCI NCGC Assay Overview: Stages of the HIV-1 replication cycle, specifically virus assembly and release, provide underexploited targets for the development of novel antiviral inhibitors. The late stages of HIV-1 replication are mediated by the Gag precursor protein, Pr55Gag. Expression of Pr55Gag is both necessary and sufficient for the production of virus-like particles from Gag-expressing cells. The Gag protein hijacks key host proteins involved in endocytic machinery of the host cell to promote endosomal processing and viral budding. The budding process requires a direct interaction between a […] (PTAP) motif in the p6 domain of Gag and the cellular endosomal sorting protein known as Tsg101. […] A fluorescence anisotropy assay has been developed to quantitatively measure the PTAP-Tsg101 interaction which can be used to screen for inhibitors of this interaction.
# NCGC Assay Protocol Summary: Two uL of the Tsg101 binding domain in buffer (10 mM HEPES pH 7.5; 0.15 M NaCl, 0.01% Tween 20; 3 mM EDTA;0.1 mM TCEP) was dispensed into Greiner black MB 1536-well plates (final concentration 10 uM). […] Fluorescent polarization was determined using FITC excitation and polarized emission filters on a Perkin Elmer Viewlux. […]
row,Compound,Potency
1,CC(C)(C)c1ccc(OP(C)(=O)Nc2ccc(SC(F)(F)F)cc2)cc1 (stereo unspecified),inconclusive: 22.4 µM
